Source: paper PMC6771824
Results are given in words; binding and its absence hold for the method and conditions named. Binding calls can cover weak binding; strength is not graded here.

Target: T1, PCGF2 (human) (UniProt P35227)
T1 sequence: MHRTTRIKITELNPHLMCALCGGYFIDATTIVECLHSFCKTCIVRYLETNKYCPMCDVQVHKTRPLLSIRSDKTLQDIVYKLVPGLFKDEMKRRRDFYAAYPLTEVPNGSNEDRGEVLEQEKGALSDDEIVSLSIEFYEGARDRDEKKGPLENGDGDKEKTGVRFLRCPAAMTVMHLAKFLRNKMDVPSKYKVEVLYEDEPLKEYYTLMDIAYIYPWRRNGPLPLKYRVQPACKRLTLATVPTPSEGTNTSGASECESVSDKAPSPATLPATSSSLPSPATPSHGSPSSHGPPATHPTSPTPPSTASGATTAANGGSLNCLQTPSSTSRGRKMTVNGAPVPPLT
Experiment: cross-linking; about 50 ug of purified ΔPRC1.2 (four subunits) cross-linked with H12/D12 DSS, 37 °C, 30 min; lysine-lysine links, Cα-Cα maximum distance 27 Å; LC-MS/MS, xQuest/xProphet, FDR 0.05; both purified

binding: binds
Substance: L307R-ΔPHC2 (human) (domain or fragment)
